# Data reported in US20240182513A1, “SEPARATION OF METAL IONS FROM A SAMPLE USING GLYCOLIPIDS” (ARIZONA BOARD OF REGENTS ON BEHALF OF THE UNIVERSITY OF …, priority 2021, published 2024).
# For at least one compound, name, drawing or mass did not settle the structure.
# What was measured:
# [1] = Example 2.1 rhamnolipid precipitation, filtration, centrifugation: lead; conditions: for Treatment 2: Rhamnolipid and Filtration Cf / Treatment 3: Rhamnolipid and Centrifugation Cc / Treatment 1: Rhamnolipid Only Cr: lead concentration after treatment; for Treatment 1: Rhamnolipid Only (Rr) efficiency of removal / Treatment 2: Rhamnolipid and Filtration (Rf) efficiency of removal / Treatment 3: Rhamnolipid and Centrifugation (Rc) efficiency of removal: lead
# Protocol: (§1) Structural variants of synthetic glycolipids were used to show the effect of the number and length of the hydrophobic tail(s) on rhamnolipid as a chemical precipitant. […] Solutions (10 mM) were made using nanopure water (≥18 MΩ-cm) then adjusted to a pH of 6.9±0.05 with HNO3 and NaOH. These solutions were made in advance and stored in the cold room for up to one month. They were brought to room temperature before each experiment.
# (§2) Three metals were tested for binding with rhamnolipid. Lead as […] (Fisher Scientific, Waltham, MA, 99% purity), was chosen to represent a metal with high rhamnolipid-metal conditional stability constant; lanthanum as La(NO3)3 6(H2O) (Sigma-Aldrich, St. Louis, MO, 99.99% purity) was chosen as a representative REE; and magnesium as Mg(NO3)2 6(H2O) (Sigma-Aldrich, St. Louis, MO, 99% purity) was chosen to represent a metal with a low rhamnolipid-metal conditional stability constant (Hogan et al., 2017). Metal solutions (5 mM) were made using nanopure water (≥18 MΩ-cm) in 20 ml glass scintillation vials. All solutions were used within 15 min to ensure minimal adsorption to the glass vial.
# (§3) Three glycolipid-based treatments were evaluated to remove metal from solution: (1) the addition of glycolipid with no further treatment (gravitational precipitation), (2) the addition of a glycolipid followed by filtration or (3) the addition of a glycolipid followed by centrifugation. Each metal (Pb, La, and Mg) was evaluated separately with each of the glycolipid structures. For each experiment, a metal solution was mixed with a glycolipid solution in a 1.7 ml reaction tube at varying molar ratios of glycolipid to metal: 0:1 (glycolipid-free control), 2:1, 5:1, and 10:1. The reactions were mixed in the order of nanopure water (≥18 MΩ-cm), glycolipid solution (10 mM), then metal solution (5 mM). The metal and glycolipid solutions were continuously stirred as they were aliquoted into the reaction tubes. The experiment was performed in triplicate.
# (§4) The reaction tubes were mixed overnight (16 to 24 h) and then three samples were collected from each tube to measure the effect of each of the three treatments: a glycolipid only treatment sample, a filtration treatment sample, and a centrifugation treatment sample. Briefly, for the glycolipid only treatment samples all tubes were vortexed for approximately 5 sec immediately before removing 0.1 ml into a dilution tube of 2% trace metal grade nitric acid (12 to 14 ml) to minimize the settling of particles. For the filtration samples each reaction tube was vortexed for 5 sec and then a 0.6 ml aliquot was collected with a 1 ml syringe. A GHP acrodisc disk filter (hydrophilic polypropylene membrane, 0.45 μm pore size, 25 mm disc diameter) from Pall Life Sciences (Port Washington, New York) was then placed onto the end of the syringe and the solution was pushed through the filter. The void space in the disk filter holds approximately 0.5 ml, therefore around 0.1 ml of filtrate was collected into a dilution tube. For the centrifugation sample, the remaining solution was centrifuged at 10,000 RCF for 15 min. Approximately 0.1 ml of the supernatant was aliquoted into a dilution tube. Following collection, all samples were taken for metal analysis using ICP-MS.
# [2] = Example 2.1 rhamnolipid precipitation, filtration, centrifugation: lanthanum; conditions: for Treatment 2: Rhamnolipid and Filtration Cf / Treatment 3: Rhamnolipid and Centrifugation Cc / Treatment 1: Rhamnolipid Only Cr: lanthanum concentration after treatment; for Treatment 1: Rhamnolipid Only (Rr) efficiency of removal / Treatment 2: Rhamnolipid and Filtration (Rf) efficiency of removal / Treatment 3: Rhamnolipid and Centrifugation (Rc) efficiency of removal: lanthanum
# Protocol: as §1, §2, §3, §4
# [3] = Example 2.1 rhamnolipid precipitation, filtration, centrifugation: magnesium; conditions: for Treatment 2: Rhamnolipid and Filtration Cf / Treatment 3: Rhamnolipid and Centrifugation Cc / Treatment 1: Rhamnolipid Only Cr: magnesium concentration after treatment; for Treatment 2: Rhamnolipid and Filtration (Rf) efficiency of removal: magnesium
# Protocol: as §1, §2, §3, §4
smiles,measurement,setting,value
"CCCCCCCC(CC(=O)O)OC(=O)CC(CCCCCCC)OC1O[C@@H](C)[C@H](O)[C@@H](O)[C@H]1O (stereo partly drawn) [Rha C10C10, rhamnosyl-β-hydroxydecanoyl-β-hydroxydecanoate]",Treatment 2: Rhamnolipid and Filtration Cf,[1]; molar ratio 2 to 1,0.017 ± 0.007 mmol/L
same,Treatment 3: Rhamnolipid and Centrifugation Cc,[1]; molar ratio 2 to 1,0.091 ± 0.003 mmol/L
same,Treatment 1: Rhamnolipid Only Cr,[1]; molar ratio 5 to 1,0.271 ± 0.013 mmol/L
same,Treatment 2: Rhamnolipid and Filtration Cf,[1]; molar ratio 5 to 1,0.002 ± 0.002 mmol/L
same,Treatment 3: Rhamnolipid and Centrifugation Cc,[1]; molar ratio 5 to 1,0.005 ± 0.000 mmol/L
same,Treatment 1: Rhamnolipid Only Cr,[1]; molar ratio 10 to 1,0.267 ± 0.005 mmol/L
same,Treatment 2: Rhamnolipid and Filtration Cf,[1]; molar ratio 10 to 1,0.083 ± 0.009 mmol/L
same,Treatment 3: Rhamnolipid and Centrifugation Cc,[1]; molar ratio 10 to 1,0.214 ± 0.004 mmol/L
same,Treatment 1: Rhamnolipid Only Cr,[1]; molar ratio rhamnolipid:lead 2 to 1,0.109 ± 0.006 mmol/L
same,Treatment 1: Rhamnolipid Only (Rr) efficiency of removal,[1]; molar ratio 2 to 1,(60.1%)
same,Treatment 2: Rhamnolipid and Filtration (Rf) efficiency of removal,[1]; molar ratio 2 to 1,(93.8%)
same,Treatment 3: Rhamnolipid and Centrifugation (Rc) efficiency of removal,[1]; molar ratio 2 to 1,(66.6%)
same,Treatment 1: Rhamnolipid Only (Rr) efficiency of removal,[1]; molar ratio 5 to 1,(0.5%)
same,Treatment 2: Rhamnolipid and Filtration (Rf) efficiency of removal,[1]; molar ratio 5 to 1,(99.2%)
same,Treatment 3: Rhamnolipid and Centrifugation (Rc) efficiency of removal,[1]; molar ratio 5 to 1,(98.1%)
same,Treatment 1: Rhamnolipid Only (Rr) efficiency of removal,[1]; molar ratio 10 to 1,(1.9%)
same,Treatment 2: Rhamnolipid and Filtration (Rf) efficiency of removal,[1]; molar ratio 10 to 1,(69.7%)
same,Treatment 3: Rhamnolipid and Centrifugation (Rc) efficiency of removal,[1]; molar ratio 10 to 1,(21.4%)
same,Treatment 2: Rhamnolipid and Filtration Cf,[2]; molar ratio 2 to 1,0.085 ± 0.005 mmol/L
same,Treatment 3: Rhamnolipid and Centrifugation Cc,[2]; molar ratio 2 to 1,0.155 ± 0.002 mmol/L
same,Treatment 1: Rhamnolipid Only Cr,[2]; molar ratio 5 to 1,0.219 ± 0.007 mmol/L
same,Treatment 2: Rhamnolipid and Filtration Cf,[2]; molar ratio 5 to 1,0.001 ± 0.000 mmol/L
same,Treatment 3: Rhamnolipid and Centrifugation Cc,[2]; molar ratio 5 to 1,0.003 ± 0.000 mmol/L
same,Treatment 1: Rhamnolipid Only Cr,[2]; molar ratio 10 to 1,0.257 ± 0.004 mmol/L
same,Treatment 2: Rhamnolipid and Filtration Cf,[2]; molar ratio 10 to 1,0.030 ± 0.002 mmol/L
same,Treatment 3: Rhamnolipid and Centrifugation Cc,[2]; molar ratio 10 to 1,0.035 ± 0.003 mmol/L
same,Treatment 1: Rhamnolipid Only Cr,[2]; molar ratio rhamnolipid:lanthanum 2 to 1,0.144 ± 0.006 mmol/L
same,Treatment 1: Rhamnolipid Only (Rr) efficiency of removal,[2]; molar ratio 2 to 1,(46.4%)
same,Treatment 2: Rhamnolipid and Filtration (Rf) efficiency of removal,[2]; molar ratio 2 to 1,(68.5%)
same,Treatment 3: Rhamnolipid and Centrifugation (Rc) efficiency of removal,[2]; molar ratio 2 to 1,(42.1%)
same,Treatment 1: Rhamnolipid Only (Rr) efficiency of removal,[2]; molar ratio 5 to 1,(18.4%)
same,Treatment 2: Rhamnolipid and Filtration (Rf) efficiency of removal,[2]; molar ratio 5 to 1,(99.7%)
same,Treatment 3: Rhamnolipid and Centrifugation (Rc) efficiency of removal,[2]; molar ratio 5 to 1,(98.9%)
same,Treatment 1: Rhamnolipid Only (Rr) efficiency of removal,[2]; molar ratio 10 to 1,(4.0%)
same,Treatment 2: Rhamnolipid and Filtration (Rf) efficiency of removal,[2]; molar ratio 10 to 1,(88.7%)
same,Treatment 3: Rhamnolipid and Centrifugation (Rc) efficiency of removal,[2]; molar ratio 10 to 1,(86.9%)
same,Treatment 2: Rhamnolipid and Filtration Cf,[3]; molar ratio 2 to 1,0.127 ± 0.007 mmol/L
same,Treatment 3: Rhamnolipid and Centrifugation Cc,[3]; molar ratio 2 to 1,0.292 ± 0.002 mmol/L
same,Treatment 1: Rhamnolipid Only Cr,[3]; molar ratio 5 to 1,0.282 ± 0.023 mmol/L
same,Treatment 2: Rhamnolipid and Filtration Cf,[3]; molar ratio 5 to 1,0.023 ± 0.003 mmol/L
same,Treatment 3: Rhamnolipid and Centrifugation Cc,[3]; molar ratio 5 to 1,0.300 ± 0.002 mmol/L
same,Treatment 1: Rhamnolipid Only Cr,[3]; molar ratio 10 to 1,0.308 ± 0.004 mmol/L
same,Treatment 2: Rhamnolipid and Filtration Cf,[3]; molar ratio 10 to 1,0.008 ± 0.002 mmol/L
same,Treatment 3: Rhamnolipid and Centrifugation Cc,[3]; molar ratio 10 to 1,0282 ± 0.004 mmol/L
same,Treatment 1: Rhamnolipid Only Cr,[3]; molar ratio rhamnolipid:magnesium 2 to 1,0.297 ± 0.001 mmol/L
same,Treatment 2: Rhamnolipid and Filtration (Rf) efficiency of removal,[3]; molar ratio 2 to 1,(52.4%)
same,Treatment 2: Rhamnolipid and Filtration (Rf) efficiency of removal,[3]; molar ratio 5 to 1,(91.4%)
same,Treatment 2: Rhamnolipid and Filtration (Rf) efficiency of removal,[3]; molar ratio 10 to 1,(97.1%)
